From patent US20160200804A1 come the findings set out here.

By UniProt entry, the sequences of proteins in these tests, tags left out. Where a name states a change or a piece, a line headed by the entry shows the natural chain unless it says otherwise. Residues count along the entry.
UniProt P05787: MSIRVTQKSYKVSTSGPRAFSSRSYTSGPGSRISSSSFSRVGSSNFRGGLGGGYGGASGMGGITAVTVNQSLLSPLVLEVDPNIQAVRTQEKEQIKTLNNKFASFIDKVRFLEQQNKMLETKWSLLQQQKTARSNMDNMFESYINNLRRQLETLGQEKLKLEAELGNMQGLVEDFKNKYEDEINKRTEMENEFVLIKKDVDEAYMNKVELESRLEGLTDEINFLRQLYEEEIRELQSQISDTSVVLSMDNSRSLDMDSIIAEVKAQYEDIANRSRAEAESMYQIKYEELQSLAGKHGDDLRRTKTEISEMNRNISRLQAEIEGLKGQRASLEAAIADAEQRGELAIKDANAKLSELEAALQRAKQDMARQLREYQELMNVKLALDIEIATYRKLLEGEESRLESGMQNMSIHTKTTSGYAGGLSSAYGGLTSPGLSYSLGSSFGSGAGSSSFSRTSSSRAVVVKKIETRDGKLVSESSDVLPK
UniProt P07355, residues 2-339: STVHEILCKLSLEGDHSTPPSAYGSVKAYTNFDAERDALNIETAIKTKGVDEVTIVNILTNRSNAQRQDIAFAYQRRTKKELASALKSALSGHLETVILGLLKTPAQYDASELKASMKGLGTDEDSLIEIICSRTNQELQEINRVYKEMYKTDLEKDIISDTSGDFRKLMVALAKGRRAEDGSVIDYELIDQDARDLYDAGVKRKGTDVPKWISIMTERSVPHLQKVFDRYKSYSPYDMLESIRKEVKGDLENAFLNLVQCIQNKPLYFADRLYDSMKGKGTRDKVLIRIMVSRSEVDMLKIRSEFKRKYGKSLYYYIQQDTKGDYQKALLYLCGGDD

The target in test [1] is cytokeratin-8 (CK8) (human) (UniProt P05787). Put plainly: co-immunoprecipitation.
The target is the same in test [2]. The test is described as follows: reciprocal co-immunoprecipitation from ACT1 lysate (anti-keratin-8 and anti-annexin-A2 beads) with western blot; annexin-A2 also sequenced by MS/MS in the keratin-8 immunoprecipitate. In general terms: Immunoblotting shows a protein as a band on a membrane.

No constants are given. Whether binding was seen depends on the method and setting. In cells and extracts the contact can be indirect. Some entries that bind do so weakly or less than the wild type.

Regarding annexin-A2 (from UniProt P07355 2-339), the binding result in test [1] and in test [2] was “binds” throughout.
